The results in this text go back to the supplement of paper PMC10849652.

The chains behind the UniProt entries cited, without tags or fusion partners. Where a name states a change or a piece, a line headed by the entry shows the natural chain unless it says otherwise.
UniProt Q14160: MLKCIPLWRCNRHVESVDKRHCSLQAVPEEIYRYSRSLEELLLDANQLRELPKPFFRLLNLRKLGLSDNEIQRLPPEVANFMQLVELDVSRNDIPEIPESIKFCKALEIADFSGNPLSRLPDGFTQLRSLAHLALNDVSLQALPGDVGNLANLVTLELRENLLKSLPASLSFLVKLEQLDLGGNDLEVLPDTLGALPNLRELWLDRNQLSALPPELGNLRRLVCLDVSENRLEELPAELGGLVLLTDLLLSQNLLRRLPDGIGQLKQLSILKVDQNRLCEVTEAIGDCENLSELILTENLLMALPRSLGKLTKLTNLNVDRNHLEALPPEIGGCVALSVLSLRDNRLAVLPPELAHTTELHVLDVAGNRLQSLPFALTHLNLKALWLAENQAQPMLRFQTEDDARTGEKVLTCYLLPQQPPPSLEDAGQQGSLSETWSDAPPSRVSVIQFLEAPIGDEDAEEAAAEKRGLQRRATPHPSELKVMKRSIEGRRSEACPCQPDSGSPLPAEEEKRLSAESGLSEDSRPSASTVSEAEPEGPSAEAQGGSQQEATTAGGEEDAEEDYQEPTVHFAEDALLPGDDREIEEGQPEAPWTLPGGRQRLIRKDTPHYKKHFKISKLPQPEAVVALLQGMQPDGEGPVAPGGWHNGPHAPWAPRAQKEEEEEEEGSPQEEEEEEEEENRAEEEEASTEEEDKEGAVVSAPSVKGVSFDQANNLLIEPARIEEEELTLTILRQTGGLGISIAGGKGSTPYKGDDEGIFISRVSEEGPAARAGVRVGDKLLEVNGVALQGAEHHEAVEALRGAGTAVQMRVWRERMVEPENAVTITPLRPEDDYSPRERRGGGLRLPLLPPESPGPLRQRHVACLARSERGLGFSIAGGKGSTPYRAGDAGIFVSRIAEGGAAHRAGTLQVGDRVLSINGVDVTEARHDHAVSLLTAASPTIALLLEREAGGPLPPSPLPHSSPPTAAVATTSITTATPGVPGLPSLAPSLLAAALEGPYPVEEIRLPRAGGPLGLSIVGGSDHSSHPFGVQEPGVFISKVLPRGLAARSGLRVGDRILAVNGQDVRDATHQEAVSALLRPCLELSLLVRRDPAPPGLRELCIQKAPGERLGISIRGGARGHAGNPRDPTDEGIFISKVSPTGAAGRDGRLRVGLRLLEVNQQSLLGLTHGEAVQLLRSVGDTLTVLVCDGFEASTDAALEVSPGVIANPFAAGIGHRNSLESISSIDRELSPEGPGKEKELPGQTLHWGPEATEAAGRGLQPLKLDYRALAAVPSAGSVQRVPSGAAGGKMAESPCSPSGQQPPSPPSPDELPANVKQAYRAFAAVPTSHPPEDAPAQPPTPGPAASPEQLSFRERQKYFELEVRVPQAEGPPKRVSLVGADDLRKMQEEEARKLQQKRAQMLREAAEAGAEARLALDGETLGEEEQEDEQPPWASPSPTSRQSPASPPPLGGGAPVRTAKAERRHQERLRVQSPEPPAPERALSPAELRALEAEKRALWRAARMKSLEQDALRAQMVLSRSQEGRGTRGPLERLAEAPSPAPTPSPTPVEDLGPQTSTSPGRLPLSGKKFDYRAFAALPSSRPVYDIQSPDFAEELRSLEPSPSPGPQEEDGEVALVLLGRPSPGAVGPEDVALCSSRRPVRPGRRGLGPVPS
UniProt P53992: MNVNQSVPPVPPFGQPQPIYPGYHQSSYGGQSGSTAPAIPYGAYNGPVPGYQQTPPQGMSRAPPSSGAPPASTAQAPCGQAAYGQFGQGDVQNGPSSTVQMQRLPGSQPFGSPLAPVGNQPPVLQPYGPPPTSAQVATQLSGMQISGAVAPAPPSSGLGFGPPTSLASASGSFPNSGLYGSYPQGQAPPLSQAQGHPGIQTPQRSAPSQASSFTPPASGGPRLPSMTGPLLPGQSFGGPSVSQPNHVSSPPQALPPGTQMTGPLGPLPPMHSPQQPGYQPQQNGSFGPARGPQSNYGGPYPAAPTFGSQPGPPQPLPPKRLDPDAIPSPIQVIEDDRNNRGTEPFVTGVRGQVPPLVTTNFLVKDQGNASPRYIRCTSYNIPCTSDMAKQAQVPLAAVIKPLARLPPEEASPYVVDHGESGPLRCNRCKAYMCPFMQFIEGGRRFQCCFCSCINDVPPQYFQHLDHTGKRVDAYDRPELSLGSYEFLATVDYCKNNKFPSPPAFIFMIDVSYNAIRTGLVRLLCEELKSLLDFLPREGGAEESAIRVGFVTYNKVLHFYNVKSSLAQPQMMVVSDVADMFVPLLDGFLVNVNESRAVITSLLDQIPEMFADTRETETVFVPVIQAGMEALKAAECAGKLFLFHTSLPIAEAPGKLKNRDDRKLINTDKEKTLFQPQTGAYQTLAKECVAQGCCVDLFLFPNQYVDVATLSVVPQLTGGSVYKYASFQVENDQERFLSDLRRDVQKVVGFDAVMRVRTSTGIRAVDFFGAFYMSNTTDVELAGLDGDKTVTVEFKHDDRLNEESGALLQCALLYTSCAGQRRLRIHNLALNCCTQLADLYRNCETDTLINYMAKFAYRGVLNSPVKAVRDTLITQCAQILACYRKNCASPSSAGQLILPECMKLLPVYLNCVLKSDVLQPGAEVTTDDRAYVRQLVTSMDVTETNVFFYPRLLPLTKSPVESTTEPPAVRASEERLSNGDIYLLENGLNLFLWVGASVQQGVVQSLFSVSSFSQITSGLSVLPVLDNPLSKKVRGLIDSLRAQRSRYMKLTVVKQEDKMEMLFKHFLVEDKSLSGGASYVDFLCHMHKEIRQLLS
UniProt Q96GA7: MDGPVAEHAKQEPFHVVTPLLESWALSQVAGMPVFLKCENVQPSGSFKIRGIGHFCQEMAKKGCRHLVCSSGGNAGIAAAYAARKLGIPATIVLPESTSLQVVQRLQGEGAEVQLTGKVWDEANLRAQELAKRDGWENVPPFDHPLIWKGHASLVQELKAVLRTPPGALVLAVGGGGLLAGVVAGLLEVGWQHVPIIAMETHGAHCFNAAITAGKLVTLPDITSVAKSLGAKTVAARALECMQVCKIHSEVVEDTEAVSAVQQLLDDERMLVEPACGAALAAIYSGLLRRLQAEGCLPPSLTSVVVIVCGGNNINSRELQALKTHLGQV
UniProt Q9UGP8: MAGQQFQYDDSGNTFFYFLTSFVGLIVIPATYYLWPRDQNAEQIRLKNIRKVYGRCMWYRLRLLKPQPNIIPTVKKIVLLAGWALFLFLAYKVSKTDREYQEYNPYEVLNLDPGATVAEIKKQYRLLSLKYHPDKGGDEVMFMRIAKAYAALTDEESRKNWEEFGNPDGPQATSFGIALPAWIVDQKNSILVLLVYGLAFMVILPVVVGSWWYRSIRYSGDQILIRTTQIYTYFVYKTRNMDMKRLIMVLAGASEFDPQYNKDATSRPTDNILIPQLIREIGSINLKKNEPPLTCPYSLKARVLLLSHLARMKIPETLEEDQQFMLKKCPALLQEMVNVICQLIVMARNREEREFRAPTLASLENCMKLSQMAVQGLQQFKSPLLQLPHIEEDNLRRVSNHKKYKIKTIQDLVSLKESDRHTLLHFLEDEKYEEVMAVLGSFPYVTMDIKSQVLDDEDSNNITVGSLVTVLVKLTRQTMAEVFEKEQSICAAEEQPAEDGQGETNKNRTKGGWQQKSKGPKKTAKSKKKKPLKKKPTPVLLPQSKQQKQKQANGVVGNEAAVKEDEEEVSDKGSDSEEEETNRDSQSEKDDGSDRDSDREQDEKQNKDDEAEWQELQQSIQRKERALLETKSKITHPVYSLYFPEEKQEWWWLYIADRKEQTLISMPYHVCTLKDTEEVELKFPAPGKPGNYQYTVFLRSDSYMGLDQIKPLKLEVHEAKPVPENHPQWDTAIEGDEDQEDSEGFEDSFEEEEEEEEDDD
UniProt Q9NSI8: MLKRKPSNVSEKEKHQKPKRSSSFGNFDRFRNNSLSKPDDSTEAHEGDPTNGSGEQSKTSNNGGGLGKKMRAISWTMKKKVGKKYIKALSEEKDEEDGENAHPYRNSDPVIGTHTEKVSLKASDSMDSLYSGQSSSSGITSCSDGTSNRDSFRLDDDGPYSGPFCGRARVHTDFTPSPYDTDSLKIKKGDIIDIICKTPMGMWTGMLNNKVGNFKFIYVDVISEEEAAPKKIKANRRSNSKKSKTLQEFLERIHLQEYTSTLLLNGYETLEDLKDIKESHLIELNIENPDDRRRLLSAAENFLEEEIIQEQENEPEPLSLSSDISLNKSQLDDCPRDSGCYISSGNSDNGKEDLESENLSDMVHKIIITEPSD
UniProt Q96KG9: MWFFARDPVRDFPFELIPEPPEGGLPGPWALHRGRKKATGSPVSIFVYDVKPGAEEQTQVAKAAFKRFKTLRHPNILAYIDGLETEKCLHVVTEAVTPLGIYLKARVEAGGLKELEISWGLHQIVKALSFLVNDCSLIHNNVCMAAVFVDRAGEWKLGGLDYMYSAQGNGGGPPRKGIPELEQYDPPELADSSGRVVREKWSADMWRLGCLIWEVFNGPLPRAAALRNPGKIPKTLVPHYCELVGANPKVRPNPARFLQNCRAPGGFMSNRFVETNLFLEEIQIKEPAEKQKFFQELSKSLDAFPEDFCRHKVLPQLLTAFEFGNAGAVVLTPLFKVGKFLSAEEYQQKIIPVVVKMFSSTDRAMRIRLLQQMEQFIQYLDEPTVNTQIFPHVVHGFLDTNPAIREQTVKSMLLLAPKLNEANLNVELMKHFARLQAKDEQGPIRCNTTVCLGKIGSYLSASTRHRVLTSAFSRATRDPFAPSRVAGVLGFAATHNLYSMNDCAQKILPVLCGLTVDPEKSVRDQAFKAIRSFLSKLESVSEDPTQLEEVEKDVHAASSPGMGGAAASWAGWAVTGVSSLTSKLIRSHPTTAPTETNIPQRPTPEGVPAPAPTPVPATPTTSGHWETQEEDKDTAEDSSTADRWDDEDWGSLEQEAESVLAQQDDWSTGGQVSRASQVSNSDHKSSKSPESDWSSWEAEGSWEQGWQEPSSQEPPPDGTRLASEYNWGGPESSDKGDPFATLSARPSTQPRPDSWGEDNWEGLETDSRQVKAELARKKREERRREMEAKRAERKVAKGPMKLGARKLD
UniProt Q15019: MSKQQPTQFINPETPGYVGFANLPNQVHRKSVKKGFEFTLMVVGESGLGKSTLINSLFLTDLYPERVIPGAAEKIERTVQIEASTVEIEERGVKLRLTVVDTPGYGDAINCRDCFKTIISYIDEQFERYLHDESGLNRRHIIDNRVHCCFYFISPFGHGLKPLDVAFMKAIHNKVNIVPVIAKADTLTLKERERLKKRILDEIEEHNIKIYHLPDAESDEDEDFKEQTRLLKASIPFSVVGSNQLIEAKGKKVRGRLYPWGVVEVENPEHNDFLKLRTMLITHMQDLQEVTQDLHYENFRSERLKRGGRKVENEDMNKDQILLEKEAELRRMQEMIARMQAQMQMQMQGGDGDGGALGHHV
UniProt O60613, whole entry, looked up: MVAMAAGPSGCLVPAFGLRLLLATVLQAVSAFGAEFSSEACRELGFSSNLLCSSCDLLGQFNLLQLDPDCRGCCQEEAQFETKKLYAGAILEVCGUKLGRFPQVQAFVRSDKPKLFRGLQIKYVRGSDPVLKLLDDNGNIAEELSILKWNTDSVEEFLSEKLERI
UniProt Q96HI0: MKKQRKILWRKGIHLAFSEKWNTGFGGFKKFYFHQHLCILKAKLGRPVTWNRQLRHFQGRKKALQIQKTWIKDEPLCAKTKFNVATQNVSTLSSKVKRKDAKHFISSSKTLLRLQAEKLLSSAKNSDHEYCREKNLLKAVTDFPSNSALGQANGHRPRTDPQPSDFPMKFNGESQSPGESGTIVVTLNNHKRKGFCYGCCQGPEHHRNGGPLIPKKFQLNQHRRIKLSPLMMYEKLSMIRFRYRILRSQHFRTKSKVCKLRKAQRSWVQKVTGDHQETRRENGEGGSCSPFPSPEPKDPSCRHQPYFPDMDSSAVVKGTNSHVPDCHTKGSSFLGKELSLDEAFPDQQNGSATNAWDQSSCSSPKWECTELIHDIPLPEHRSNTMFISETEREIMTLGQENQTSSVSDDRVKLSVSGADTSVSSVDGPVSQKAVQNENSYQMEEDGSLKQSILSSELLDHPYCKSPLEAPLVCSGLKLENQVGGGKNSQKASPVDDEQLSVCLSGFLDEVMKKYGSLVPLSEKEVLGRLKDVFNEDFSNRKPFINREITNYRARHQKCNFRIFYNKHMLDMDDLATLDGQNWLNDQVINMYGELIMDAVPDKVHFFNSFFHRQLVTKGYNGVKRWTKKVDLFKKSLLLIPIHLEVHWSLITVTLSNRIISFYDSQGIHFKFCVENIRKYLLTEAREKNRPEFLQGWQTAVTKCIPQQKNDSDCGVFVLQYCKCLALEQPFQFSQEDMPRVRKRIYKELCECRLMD
UniProt P21912: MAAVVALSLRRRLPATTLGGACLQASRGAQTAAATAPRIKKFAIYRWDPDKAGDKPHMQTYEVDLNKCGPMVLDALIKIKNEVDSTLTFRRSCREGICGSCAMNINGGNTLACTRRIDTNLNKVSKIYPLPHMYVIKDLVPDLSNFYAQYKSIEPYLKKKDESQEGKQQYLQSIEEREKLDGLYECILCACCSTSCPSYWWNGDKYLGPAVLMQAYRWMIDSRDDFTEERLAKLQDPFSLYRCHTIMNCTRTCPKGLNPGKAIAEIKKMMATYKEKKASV

Some of the results follow.

Compound in this assay: C1=CC2=NC=CN=C2C=C1/C=C/3\C(=O)NC(=O)S3
As to the kind of experiment: log2 fold change, soluble protein after heating vs DMSO (PISA); higher = thermal stabilisation; K562 lysate, 10 uM; active = over 0.2 and 3.5 SD of the protein, either way, in both replicates (recomputed). An outline of the steps: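 Values give the log-two fold change in thermal stability against solvent controls, from duplicates. Crude K562 extract at 1 mg/mL protein, made by dounce homogenisation in PBS pH 7.4 with 1 mM MgCl2, was treated with 10 μM compound for 30 min. After 3 min heating across 48°C-58°C, aliquots were pooled, adjusted to 0.5% NP-40 at 4°C and centrifuged at 21,000xg for 90 min. The supernatant was measured by TMTpro 16plex LC-MS/MS with channel sums equalised.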
Consider SCRIB (UniProt Q14160), for which the log2 fold change is inactive: -0.006.
As for SEC23A (UniProt Q15436), the figure is inactive: 0.002; as for SEPTIN9 (UniProt Q9UHD8), inactive: -0.02; as for SEMA4B (UniProt Q9NPR2), inactive: 0.053.
The figure for SDF4 (UniProt Q9BRK5) is inactive: 0.014.
As for SELENOS (UniProt Q9BQE4), the figure is inactive: -0.048; as for SCFD1 (UniProt Q8WVM8), inactive: -0.016.
With SEC24D isoform 2 (UniProt O94855), the log2 fold change was inactive: 0.032.
The figure for SELENBP1 isoform 4 (UniProt Q13228) is inactive: 0.
The figure for SEC61A1 (UniProt P61619) is inactive: -0.003; for SEC24C (UniProt P53992) it is inactive: -0.014; for SAP30BP (UniProt Q9UHR5) it is inactive: -0.031.
As for SCRN3 (UniProt Q0VDG4), the log2 fold change was inactive: 0.
The figure for SDSL (UniProt Q96GA7) is inactive: -0.004; for SEC63 (UniProt Q9UGP8) it is inactive: -0.033; for SARG (UniProt Q9BW04) it is inactive: -0.004.
As for SAAL1 (UniProt Q96ER3), the figure is inactive: 0.012; as for SAR1B (UniProt Q9Y6B6), inactive: -0.065; as for SAMSN1 (UniProt Q9NSI8), inactive: -0.035.
Consider SDCCAG8 (UniProt Q86SQ7), for which the log2 fold change is inactive: -0.031.
The figure for SCYL1 (UniProt Q96KG9) is inactive: -0.015; for SDAD1 (UniProt Q9NVU7) it is inactive: -0.041.
As for SEPTIN2 isoform 2 (UniProt Q15019), the figure is inactive: 0.003; as for SCAMP3 isoform 2 (UniProt O14828), inactive: 0.072; as for SELENOF (UniProt O60613), inactive: -0.049.
Consider SASS6 (UniProt Q6UVJ0), for which the log2 fold change is inactive: -0.009.
As for SCFD2 (UniProt Q8WU76), the figure is inactive: 0.014.
The figure for SEPTIN11 isoform 2 (UniProt Q9NVA2) is inactive: -0.033; for SCLT1 (UniProt Q96NL6) it is inactive: -0.057; for SCARB1 isoform 2 (UniProt Q8WTV0) it is inactive: 0.012.
As for SENP5 (UniProt Q96HI0), the figure is inactive: 0.039; as for SDHB (UniProt P21912), inactive: -0.02.
Consider SCML2 (UniProt Q9UQR0), for which the log2 fold change is inactive: -0.046.
